# Primary screen of a compound library

Source: ChEMBL document CHEMBL3988442, “University of Dundee, Small-Polar-MMV Screening Library” (2021).

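Growth of Mycobacterium tuberculosis over 3 days (7H9 medium with glucose and tyloxapol); the read-out is not stated. Tested at 50 µM. The record gives no direction; compounds that gave an IC50 in retests scored well above the rest, so higher reads as more growth inhibition. About 69,000 compounds were tested under these conditions; 1.1% (about 760) showed 50% or more at least once.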

The filed quantity is “Percent Effect” (%). The controls that fix the scale are not given in the record; negative values are as filed. Compounds were drawn at random from those tested, without regard to their results. Two or more numbers in one place are separate tests of the same structure; such repeats can differ widely.

Result for Cc1noc(C(C)C)c1C(=O)NCCN1CCCCCC1=O was 2.904%. CC(=O)N[C@@H]1CN(Cc2oc3ccccc3c2C)C[C@H]1c1ccc(C)o1 read -13.41%. Result for CCOc1ccc(CN(C)C(=O)COc2ccc(C)nc2)cc1 was 32.64%. With O=C(O)C(F)(F)F.[H][C@]12CCN(C(=O)c3ccno3)[C@@]1([H])CC[C@@H](COCCN1CCCC1)O2 the screen gave 9.949%. For [H][C@]12CCNC[C@@]1([H])OCCN(C(=O)c1ccco1)C2 the result was -42%. For [H][C@@]12CNCC[C@]1(O)CCN(C(=O)C1(c3ccc(OC)cc3)CCCC1)C2 the result was 21.84%. With NCC(c1cccnc1)N1CCOCC1 (configuration not stated) the screen gave -28.14%. Result for O=C(Cc1csc(-c2ccccc2Cl)n1)NCc1cccc(C(=O)O)c1 was 6.805%.

With COCCc1noc(CN2CCC(c3ccccc3C(=O)O)C2)n1 (configuration not stated) the screen gave 9.666%. With Cc1cc(NC(=O)N2CCC[C@@H]2CO)nn1-c1ccccc1Cl the screen gave -5.916% and -0.8201%. Cc1nc2[nH]cnc(Nc3cc(C)n(C)n3)c-2n1 read 10.94%. COc1ccc(O[C@H]2COCCN(C(=O)c3ccno3)C2)cc1 gave -16.09% and -10.04%. O=C(O)C(F)(F)F.[H][C@@]12OCCN(C(=O)c3cscn3)[C@@]1([H])CC[C@@H]2Oc1ccccn1 gave -10.78%. CCC(C)NC(=O)c1ccc(CNC(=O)CCC(C)C)cc1 (configuration not stated) read -20.39%. Cc1cc(C)c(C(=O)N2CCn3nc(C(=O)NCCN(C)C)cc3C2)[nH]1 gave 19.16%. Nc1ncccc1CN1CCCn2nc(CCC(=O)NC3CC3)cc2C1 gave 6.161%.

Cn1ccc(C(=O)N2CCCC(CNS(C)(=O)=O)C2)cc1=O (configuration not stated) read -7.501%. COc1ccc(NC(C)C(=O)N2CCN(Cc3ccccc3)CC2)cn1 (configuration not stated) read -3.865% and -7.148%. With CCc1csc(C2CCCN(C(=O)c3ccc4[nH]nnc4c3)C2)n1 (configuration not stated) the screen gave 5.805%. CN1CCC(N(Cc2ccccc2)C(=O)c2nccn3ccnc23)CC1 read 4.394% and 3.173%. For CC(=O)Nc1nc(CN2CCCC2Cn2cc(C)cn2)cs1 (configuration not stated) the result was -27.36%. With CC(=O)N[C@@H]1CN(S(=O)(=O)c2ccc(Cl)cc2)C[C@H]1O the screen gave 2.872%. Result for CNC(=O)C1CCN(c2nccc(CCC(F)(F)F)n2)C1 (configuration not stated) was 16.66%. With CCCN(CCc1ccccn1)C(=O)CCc1cnn(C)c1 the screen gave 5.409%.

With Cc1ccsc1[C@@H]1CCN(C(=O)CCc2nc3ccccc3[nH]2)C[C@H]1O the screen gave -4.028% and -11.21%. Cc1noc(C)c1CC(=O)N[C@@H]1CC[C@@H](Oc2ccccc2)[C@@H]1O gave 11.43%. Result for Cc1nn(C)c(Cl)c1C1CCCN1C(=O)c1csnn1 (configuration not stated) was 11.45%. COc1cccc(S(=O)(=O)N2CCCc3c(OC)nn(C)c3C2)c1 gave 14.05% and -0.1911%. For CC(C)c1cc(C(F)(F)F)n2nc(C3CCN(S(C)(=O)=O)C3)cc2n1 (configuration not stated) the result was -16.35%. For CCCNC(=O)c1cc(C2CCCN(Cc3ccccn3)C2)no1 (configuration not stated) the result was -30.64%. COCC1CC2(CCN(CC3CC3)CC2)CN1Cc1ccccn1.O=C(O)C(F)(F)F.O=C(O)C(F)(F)F (configuration not stated) gave 19.14%. Cn1c(CN2CCN(CC3CC3)CC2)nnc1C1CCC1 gave -5.631% and -5.528%.

CC(=O)N1CC2(CCN(c3ccc4ccccc4n3)CC2)CC1C(=O)O (configuration not stated) gave 0.6458%.

2 of the entries, repeated:

{"compound": "CCc1csc(C2CCCN(C(=O)c3ccc4[nH]nnc4c3)C2)n1", "stereo": "configuration not stated", "Percent Effect": 5.805}
{"compound": "COCCc1noc(CN2CCC(c3ccccc3C(=O)O)C2)n1", "stereo": "configuration not stated", "Percent Effect": 9.666}